# Assay results taken from the supplement of paper PMC8728848.
# Some of the results follow.
# B1: PX14404-bvu-534-26-534 (Bacteroides vulgatus) (protein)
# chain: EDPRGKLTPENFFSTQDELNMSIYALYQKVNLSQVYTNMQLPQWQGDDITTNPGSNKQPAAEMDKFAAANNNKGVKDAWNMHYAIVKAANLIIQGASKTPTTQDEINIALGQAKFWRAYAYFTLVRLWGPLPMNLDNVNDDYTKPLSPVEEVYGHIVQDLTEAEAVLPTGYSGSPRFLNGVNVYVTRQAAKSTLAAVYMAMAGWPMNKTEYYAKAAEKAKEVIEGVNRGEYEYKLDKDYKDVYAMSNNYNNETVLGINYSPFVDWAQDSELTSCNQFESLGGWGDAWGEIRFWKEFPDGPRKDATYDPKIRLKDGTLVDWWELKEDGTPVVPEHHPMFSIFSVNWDPASKVNTSAPYDYTKPASQNMCNDHRHRIIRYSEVLLWYAEAKARTGQTDELAFKCLNDVRERAGLEPLTGLSADDLAEAAYKEHGWEVAGYWVALVTRRADQFRMNRLKDTFKERAENTAVEVADGILVKESVEYTNRTWSDNLMYLPYPDMDSQKNPNLVR
# Experiments:
# Assay in all cases: glycan array binding signal (z-score within array); higher = stronger binding
# Settings in all cases: glycan notation: IUPAC condensed, linker removed
# [1] = target: Neu5Ac(a2-6)GlcNAc(b1-4)GlcNAc(b1-4)GlcNAc
# Summary of the method: (§1)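 Glycan array data were curated from 3228 arrays in the Consortium for Functional Glycomics database and kept only where the protein sequence was available. Glycan names were converted to IUPAC-condensed notation, and columns mapping to the same glycan were averaged. The binding signal is a within-array Z-score, averaged across arrays of the same protein sequence at different concentrations or buffers and across linkers. Negative Z-scores can be read as non-binding.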
# [2] = target: Neu5Ac(a2-8)Neu5Ac
# Summary of the method: as §1
# [3] = target: Neu5Ac(a2-8)Neu5Ac(a2-3)Gal(b1-3)GalNAc(b1-4)[Neu5Ac(a2-3)]Gal(b1-4)Glc
# Summary of the method: as §1
# [4] = target: Neu5Ac(a2-8)Neu5Ac(a2-3)Gal(b1-3)GalNAc(b1-4)[Neu5Ac(a2-8)Neu5Ac(a2-3)]Gal(b1-4)Glc
# Summary of the method: as §1
# [5] = target: Neu5Ac(a2-8)Neu5Ac(a2-3)Gal(b1-4)Glc
# Summary of the method: as §1
# [6] = target: Neu5Ac(a2-8)Neu5Ac(a2-3)Gal(b1-4)GlcNAc
# Summary of the method: as §1
# [7] = target: Neu5Ac(a2-8)Neu5Ac(a2-3)[Gal(b1-3)GalNAc(b1-4)]Gal(b1-4)Glc
# Summary of the method: as §1
# [8] = target: Neu5Ac(a2-8)Neu5Ac(a2-3)[GalNAc(b1-4)]Gal(b1-4)Glc
# Summary of the method: as §1
# [9] = target: Neu5Ac(a2-8)Neu5Ac(a2-8)Neu5Ac
# Summary of the method: as §1
# [10] = target: Neu5Ac(a2-8)Neu5Ac(a2-8)Neu5Ac(a2-3)Gal(b1-4)Glc
# Summary of the method: as §1
# [11] = target: Neu5Ac(a2-8)Neu5Ac(a2-8)Neu5Ac(a2-3)[Gal(b1-3)GalNAc(b1-4)]Gal(b1-4)Glc
# Summary of the method: as §1
# [12] = target: Neu5Ac(a2-8)Neu5Ac(a2-8)Neu5Ac(a2-3)[GalNAc(b1-4)]Gal(b1-4)Glc
# Summary of the method: as §1
# [13] = target: Neu5Ac(a2-8)Neu5Ac(a2-8)Neu5Ac(a2-8)Neu5Ac(a2-3)[GalNAc(b1-4)]Gal(b1-4)Glc
# Summary of the method: as §1
# [14] = target: Neu5Ac(a2-8)Neu5Gc(a2-3)Gal(b1-4)GlcNAc
# Summary of the method: as §1
# [15] = target: Neu5Ac(b2-6)Gal(b1-4)GlcNAc
# Summary of the method: as §1
# [16] = target: Neu5Ac(b2-6)GalNAc
# Summary of the method: as §1
# [17] = target: Neu5Ac9Ac(a2-3)Gal(b1-3)GlcNAc
# Summary of the method: as §1
# [18] = target: Neu5Ac9Ac(a2-3)Gal(b1-4)GlcNAc
# Summary of the method: as §1
# [19] = target: Neu5Ac9Ac(a2-6)Gal(b1-4)GlcNAc
# Summary of the method: as §1
# [20] = target: Neu5Gc(a2-3)Gal(b1-3)GlcNAc
# Summary of the method: as §1
# [21] = target: Neu5Gc(a2-3)Gal(b1-3)[Fuc(a1-4)]GlcNAc
# Summary of the method: as §1
# [22] = target: Neu5Gc(a2-3)Gal(b1-4)Glc
# Summary of the method: as §1
# [23] = target: Neu5Gc(a2-3)Gal(b1-4)GlcNAc
# Summary of the method: as §1
# [24] = target: Neu5Gc(a2-3)Gal(b1-4)GlcNAc(b1-3)Gal(b1-4)GlcNAc(b1-2)Man(a1-3)[Neu5Gc(a2-3)Gal(b1-4)GlcNAc(b1-3)Gal(b1-4)GlcNAc(b1-2)Man(a1-6)]Man(b1-4)GlcNAc(b1-4)GlcNAc
# Summary of the method: as §1
# [25] = target: Neu5Gc(a2-3)Gal(b1-4)[Fuc(a1-3)]GlcNAc
# Summary of the method: as §1
# [26] = target: Neu5Gc(a2-6)Gal(b1-4)GlcNAc
# Summary of the method: as §1
# [27] = target: Neu5Gc(a2-6)GalNAc
# Summary of the method: as §1
# [28] = target: Neu5Gc(a2-8)Neu5Ac(a2-3)Gal(b1-4)GlcNAc
# Summary of the method: as §1
# [29] = target: Neu5Gc(a2-8)Neu5Gc(a2-3)Gal(b1-4)GlcNAc
# Summary of the method: as §1
# [30] = target: Neu5Gc(a2-8)Neu5Gc(a2-3)Gal(b1-4)GlcNAc(b1-3)Gal(b1-4)GlcNAc
# Summary of the method: as §1
# [31] = target: Neu5Gc(a2-8)Neu5Gc(a2-6)Gal(b1-4)GlcNAc
# Summary of the method: as §1
# [32] = target: Neu5Gc(b2-6)Gal(b1-4)GlcNAc
# Summary of the method: as §1
binder,measurement,setting,value
B1,glycan array binding signal (z-score),[1],0.618
same,glycan array binding signal (z-score),[2],0.425
same,glycan array binding signal (z-score),[3],0.834
same,glycan array binding signal (z-score),[4],0.607
same,glycan array binding signal (z-score),[5],-0.559
same,glycan array binding signal (z-score),[6],-0.119
same,glycan array binding signal (z-score),[7],-0.754
same,glycan array binding signal (z-score),[8],-0.271
same,glycan array binding signal (z-score),[9],0.419
same,glycan array binding signal (z-score),[10],1.02
same,glycan array binding signal (z-score),[11],-0.014
same,glycan array binding signal (z-score),[12],0.28
same,glycan array binding signal (z-score),[13],0.074
same,glycan array binding signal (z-score),[14],12.9
same,glycan array binding signal (z-score),[15],-0.796
same,glycan array binding signal (z-score),[16],-0.232
same,glycan array binding signal (z-score),[17],-0.552
same,glycan array binding signal (z-score),[18],-0.197
same,glycan array binding signal (z-score),[19],0.363
same,glycan array binding signal (z-score),[20],-0.601
same,glycan array binding signal (z-score),[21],-1.1
same,glycan array binding signal (z-score),[22],0.615
same,glycan array binding signal (z-score),[23],-0.013
same,glycan array binding signal (z-score),[24],-0.423
same,glycan array binding signal (z-score),[25],-0.707
same,glycan array binding signal (z-score),[26],-0.607
same,glycan array binding signal (z-score),[27],1.92
same,glycan array binding signal (z-score),[28],-1.55
same,glycan array binding signal (z-score),[29],-0.893
same,glycan array binding signal (z-score),[30],-0.559
same,glycan array binding signal (z-score),[31],-0.649
same,glycan array binding signal (z-score),[32],-1.04

# Fetched one by one from above, two records:
binder,measurement,setting,value
B1,glycan array binding signal (z-score),[28],-1.55
same,glycan array binding signal (z-score),[29],-0.893
